The match of structure and compound is tentative.
Molecular target: FSH receptor (Homo sapiens, UniProt P23945)
Experiment: FSH assay: cAMP response element luciferase reporter in CHO cells expressing recombinant FSH receptor
Conditions: read-out: ED50; agonist activity; CHO cells stably transfected with recombinant FSH receptor; luciferase luminescence; log-dose-response curves; incubation 37° C. for 3 hrs 30 min
Method: Compounds of the invention were tested in the following assay.
All compounds of the invention were stored in 96-well deepwell plates in DMSO at a nominal concentration of 10 μM. Compounds of the invention were screened for agonist activity at the FSH receptor using the recombinant FSH receptor stably transfected and expressed in Chinese Hamster Ovary Cells (CHO cells) essentially as described in the work by Kelton, et al. Molecular and Cellular Endocrinology, 1992, 89, 141-151). […] Thus an agonist at the FSH receptor increases cAMP in the cell which results in activation of the CREB (cAMP) response element binding protein). The substrate for the enzyme (Packard Instrument Company 800 Research Parkway, Meriden, Conn. 06450, USA) was added to the cells after appropriate incubation with the compounds or FSH and the amount of luciferase expressed was measured by quantitating the luminescence produced by the enzyme using a TopCount scintillation/luminescence counter running in single photon counting mode. A compound which acts as an agonist at the receptor should produce light from the treated cells in proportion to its concentration within the incubation. Luminescence should be saturable at high concentrations of the compound. […]

Chains of the proteins cited; added tags and fusions are not shown. Residues count along the entry.
UniProt P23945, 18-695 limits assumed: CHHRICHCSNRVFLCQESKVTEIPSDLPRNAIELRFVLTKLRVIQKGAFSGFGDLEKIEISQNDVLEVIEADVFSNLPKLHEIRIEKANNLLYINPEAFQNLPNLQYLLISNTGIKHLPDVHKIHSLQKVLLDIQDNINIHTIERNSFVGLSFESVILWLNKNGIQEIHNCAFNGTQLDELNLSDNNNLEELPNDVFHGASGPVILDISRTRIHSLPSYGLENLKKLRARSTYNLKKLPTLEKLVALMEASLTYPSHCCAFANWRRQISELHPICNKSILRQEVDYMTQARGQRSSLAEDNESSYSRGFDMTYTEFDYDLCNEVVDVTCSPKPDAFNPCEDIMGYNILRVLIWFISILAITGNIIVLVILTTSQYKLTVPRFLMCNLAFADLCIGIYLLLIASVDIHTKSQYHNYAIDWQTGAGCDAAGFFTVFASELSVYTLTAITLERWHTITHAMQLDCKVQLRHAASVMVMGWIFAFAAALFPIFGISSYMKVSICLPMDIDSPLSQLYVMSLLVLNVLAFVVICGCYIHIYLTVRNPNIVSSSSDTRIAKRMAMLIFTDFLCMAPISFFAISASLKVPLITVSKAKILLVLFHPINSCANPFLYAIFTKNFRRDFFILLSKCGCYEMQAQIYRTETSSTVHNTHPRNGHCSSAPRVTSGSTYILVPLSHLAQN

EC50: 13 nM
SMILES: CCCCCCCCN1CCN(S(=O)(=O)c2cccs2)[C@H](C(=O)Nc2ccc3c(c2)nc(-c2cccnc2)n3CC)C1

Source: patent US7754722B2, “Piperazine derivatives and methods of use” (Merck Serono SA, priority 2002, dated 2010)
